Reference: PubChem BioAssay AID504791 (Drosophila RNAi Screening Center, 2011)
In all, the deposit lists about 23,000 reagents; this is a random part of those that have a named target and a result. Of all reagents, 199 (0.86%) are marked active. 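Plate-scaled ratios behind the calls are not deposited; printed light signals are raw; many rows marked increased or decreased are still called inactive.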 A plus sign joins genes that one reagent is predicted to hit. Not stated in the record: the direction of the score.

Purpose: 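Factors in Argonaute-based small RNA production and activity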 (primary screen)
Cells: Drosophila S2-derived reporter cells
Reagents: long dsRNA against Drosophila genes, about 150-250 ng dsRNA per well (siRNA assay); about 80-120 ng (miRNA assay)
Duration: about 5 days (siRNA assay); about 4 days (miRNA assay)
Treatment: copper sulfate induction of reporters: 25 µM (siRNA assay); 200 mM stated (miRNA assay), 1-2 days before reading
Read-out: 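Dual luciferase assay: Renilla to firefly signal ratio in each well, scaled to the mean ratio of its plate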
Call rule: 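a well was a first-pass pick when its plate-scaled ratio rose above 1.5 (siRNA assay) or 1.6 (miRNA assay), or dropped below 0.6; a gene counted only if two separate dsRNAs agreed on retest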

| gene knocked down | amplicon | stable siRNA reporter change | miRNA reporter change | stable assay Renilla, run 1 (luminescence) | stable assay firefly, run 1 (luminescence) | activity call |
| --- | --- | --- | --- | --- | --- | --- |
| ple | DRSC11383 | – | – | 7018 | 4.28e5 | inactive |
| CG15905 | DRSC06591 | – | – | 6875 | 3.93e5 | inactive |
| Taf10b | DRSC00792 | – | – | 8043 | 5.72e5 | inactive |
| CG9377 | DRSC03217 | – | – | 39817 | 1.18e6 | inactive |
| ND-39 | DRSC11791 | – | – | 7630 | 3.85e5 | inactive |
| M7BP | DRSC05932 | – | – | 7994 | 6.04e5 | inactive |
| CG34034 | DRSC13506 | – | – | 5298 | 4.66e5 | inactive |
| Stat92E | DRSC16870 | – | – | 6416 | 2.50e5 | inactive |
| l(1)G0289 | DRSC18215 | – | – | 6883 | 4.19e5 | inactive |
| Rrp4 | DRSC04434 | – | – | 2.46e5 | 8.29e5 | inactive |
| CG43689 | DRSC18383 | – | – | 4760 | 2.62e5 | inactive |
| CG43689 | DRSC22467 | – | – | 4680 | 4.34e5 | inactive |
| CG43689 | DRSC23070 | – | – | 4779 | 3.02e5 | inactive |
| CG14085 | DRSC10089 | – | – | 6831 | 3.75e5 | inactive |
| Vps52 | DRSC03050 | – | – | 8138 | 4.16e5 | inactive |
| sol | DRSC20587 | – | – | 5983 | 5.51e5 | inactive |
| TwdlL | DRSC16042 | reporter ratio raised past the hit cutoff | – | 31525 | 5.28e5 | inactive |
| swm | DRSC02012 | – | – | 2.50e5 | 1.31e6 | inactive |
| swm | DRSC21831 | reporter ratio raised past the hit cutoff | – | 16392 | 5.35e5 | inactive |
| CG6937 + btn | DRSC16917 | – | – | 6551 | 3.92e5 | inactive |
| Zir | DRSC00307 | – | – | 10916 | 4.70e5 | inactive |
| ap | DRSC04917 | – | – | 20718 | 1.95e6 | inactive |
| Eglp3 | DRSC04293 | – | – | 6244 | 3.36e5 | inactive |
| sav | DRSC14681 | – | – | 6638 | 3.22e5 | inactive |
| sav | DRSC14682 | – | – | 6810 | 2.84e5 | inactive |
| CG13117 | DRSC02215 | – | – | 7314 | 4.39e5 | inactive |
| Cyp4ac3 | DRSC03304 | – | – | 10301 | 2.74e5 | inactive |
| Abd-B | DRSC14098 | – | – | 6571 | 4.21e5 | inactive |
| Abd-B | DRSC14337 | – | – | 6863 | 3.36e5 | inactive |
| CG30485 | DRSC06376 | – | – | 6808 | 4.30e5 | inactive |
| Acer | DRSC01852 | – | – | 7039 | 6.57e5 | inactive |
| RIOK1 | DRSC09853 | – | – | 10189 | 4.86e5 | inactive |
| CG3860 | DRSC04425 | – | – | 10943 | 1.33e6 | inactive |
| CG3635 | DRSC03729 | – | – | 6875 | 3.83e5 | inactive |
| CG34396 | DRSC04245 | – | – | 7358 | 6.34e5 | inactive |
| CG34396 | DRSC04246 | – | – | 7826 | 5.12e5 | inactive |
| NitFhit | DRSC08680 | – | – | 5799 | 3.17e5 | inactive |
| Dys + snoRNA:Me18S-A1374 | DRSC16232 | – | – | 6227 | 2.26e5 | inactive |
| Gba1a | DRSC21494 | – | – | 8979 | 4.11e5 | inactive |
| CG15024 | DRSC08478 | – | – | 5831 | 4.46e5 | inactive |
| CG5880 | DRSC15906 | – | – | 7703 | 4.32e5 | inactive |
| CG33278 | DRSC10336 | – | – | 5766 | 4.45e5 | inactive |
| CG9297 | DRSC16469 | reporter ratio lowered past the hit cutoff | reporter ratio lowered past the hit cutoff | 7807 | 6.99e5 | inactive |
| Vap33 | DRSC18384 | – | – | 8929 | 5.99e5 | inactive |
| tho2 | DRSC00646 | – | – | 10906 | 4.23e5 | inactive |
| Inos | DRSC07655 | – | – | 6882 | 3.74e5 | inactive |
| tou | DRSC06006 | – | – | 7336 | 3.98e5 | inactive |
| tou | DRSC22710 | – | – | 4147 | 4.43e5 | inactive |
| CG13484 | DRSC10026 | – | – | 8150 | 3.85e5 | inactive |
| CG33689 | DRSC09424 | – | – | 5874 | 4.64e5 | inactive |
| Nadk1b | DRSC05432 | – | – | 4119 | 2.94e5 | inactive |
| Nadk1b | DRSC06964 | – | – | 7658 | 4.44e5 | inactive |
| Nadk1b | DRSC06965 | – | – | 5535 | 3.16e5 | inactive |
| Nach | DRSC07478 | – | – | 5654 | 3.03e5 | inactive |
| CG16820 | DRSC02522 | – | – | 11588 | 1.20e6 | inactive |
| Snap29 | DRSC04721 | – | – | 5962 | 3.64e5 | inactive |
| Marf | DRSC18329 | – | – | 6559 | 4.21e5 | inactive |
| Marf | DRSC28101 | – | reporter ratio lowered past the hit cutoff | – | – | inactive |
| pcs | DRSC07042 | – | – | 7972 | 4.64e5 | inactive |
| CG5180 | DRSC15731 | – | – | 8412 | 4.43e5 | inactive |
| fzr | DRSC18781 | – | – | 6375 | 3.03e5 | inactive |
| CG33255 (retired record) + hpRNA:CR32205 | DRSC09610 | – | – | 6388 | 5.04e5 | inactive |
| CG33255 (retired record) + hpRNA:CR32205 | DRSC09611 | – | – | 5971 | 4.65e5 | inactive |
| AOX2 | DRSC15338 | – | – | 7324 | 4.48e5 | inactive |
| CG31206 | DRSC13388 | – | – | 3791 | 3.82e5 | inactive |
| ATPsynF | DRSC04482 | – | – | 20082 | 2.07e6 | inactive |
| CG30034 (retired record) | DRSC05288 | – | – | 6843 | 3.97e5 | inactive |
| Gat | DRSC17144 | – | – | 6214 | 3.72e5 | inactive |
| r-l | DRSC17042 | – | – | 2792 | 3.48e5 | inactive |
| r-l | DRSC22784 | reporter ratio lowered past the hit cutoff | – | 1432 | 3.47e5 | inactive |
| FLASH | DRSC06872 | – | – | 4043 | 4.74e5 | inactive |
| CG31639 | DRSC00910 | – | – | 3811 | 2.70e5 | inactive |
| RpL10 | DRSC11947 | – | – | 7521 | 4.33e5 | inactive |
| ATPsynCF6L | DRSC08232 | – | – | 6311 | 4.34e5 | inactive |
| CG44153 | DRSC02228 | – | – | 12803 | 1.42e6 | inactive |
| CG44153 | DRSC02229 | – | – | 8513 | 6.08e5 | inactive |
| CG44153 | DRSC02902 | – | – | 8283 | 5.03e5 | inactive |
| CG44153 | DRSC02903 | – | – | 7949 | 5.67e5 | inactive |
| Or94a | DRSC16772 | – | – | 6370 | 2.64e5 | inactive |
| CG34225 | DRSC05270 | – | – | 6243 | 4.07e5 | inactive |
| p | DRSC16560 | – | – | 8070 | 5.24e5 | inactive |
| Chs2 | DRSC11830 | – | – | 7316 | 3.32e5 | inactive |
| mbl | DRSC05657 | – | – | 6500 | 5.00e5 | inactive |
| mbl | DRSC06449 | – | – | 8615 | 3.32e5 | inactive |
| mbl | DRSC07651 | – | reporter ratio lowered past the hit cutoff | 6107 | 2.78e5 | inactive |
| mbl | DRSC23188 | – | – | 3023 | 2.90e5 | inactive |

Targets listed so far whose gene name starts with M or m (7):
| gene knocked down | amplicon | stable siRNA reporter change | miRNA reporter change | stable assay Renilla, run 1 (luminescence) | stable assay firefly, run 1 (luminescence) | activity call |
| --- | --- | --- | --- | --- | --- | --- |
| M7BP | DRSC05932 | – | – | 7994 | 6.04e5 | inactive |
| Marf | DRSC18329 | – | – | 6559 | 4.21e5 | inactive |
| Marf | DRSC28101 | – | reporter ratio lowered past the hit cutoff | – | – | inactive |
| mbl | DRSC05657 | – | – | 6500 | 5.00e5 | inactive |
| mbl | DRSC06449 | – | – | 8615 | 3.32e5 | inactive |
| mbl | DRSC07651 | – | reporter ratio lowered past the hit cutoff | 6107 | 2.78e5 | inactive |
| mbl | DRSC23188 | – | – | 3023 | 2.90e5 | inactive |
